# Assay results reported in the supplement of paper PMC10849652.
# Protein sequences, listed by entry. Tags and fused reporters are not part of them. Lines headed by an entry give the natural chain unless they say otherwise; changes in a name come on top.
# UniProt P20810: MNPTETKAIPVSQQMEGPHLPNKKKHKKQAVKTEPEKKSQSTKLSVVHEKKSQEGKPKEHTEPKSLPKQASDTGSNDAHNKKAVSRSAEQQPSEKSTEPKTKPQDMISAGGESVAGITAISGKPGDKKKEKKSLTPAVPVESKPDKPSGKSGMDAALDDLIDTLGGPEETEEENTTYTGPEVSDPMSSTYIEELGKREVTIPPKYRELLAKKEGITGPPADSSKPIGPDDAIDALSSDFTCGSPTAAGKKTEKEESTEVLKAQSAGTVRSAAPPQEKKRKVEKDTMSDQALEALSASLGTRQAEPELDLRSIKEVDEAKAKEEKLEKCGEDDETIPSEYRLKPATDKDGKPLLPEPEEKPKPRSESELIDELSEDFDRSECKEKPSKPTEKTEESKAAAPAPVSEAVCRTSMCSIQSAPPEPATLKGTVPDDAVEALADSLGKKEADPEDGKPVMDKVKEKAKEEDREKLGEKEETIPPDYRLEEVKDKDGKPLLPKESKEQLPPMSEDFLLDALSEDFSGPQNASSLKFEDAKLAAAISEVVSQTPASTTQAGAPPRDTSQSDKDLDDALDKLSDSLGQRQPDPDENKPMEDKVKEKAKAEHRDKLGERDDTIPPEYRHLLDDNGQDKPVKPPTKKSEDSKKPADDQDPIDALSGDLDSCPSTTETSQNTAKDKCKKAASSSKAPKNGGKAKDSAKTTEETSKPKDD
# UniProt P50990: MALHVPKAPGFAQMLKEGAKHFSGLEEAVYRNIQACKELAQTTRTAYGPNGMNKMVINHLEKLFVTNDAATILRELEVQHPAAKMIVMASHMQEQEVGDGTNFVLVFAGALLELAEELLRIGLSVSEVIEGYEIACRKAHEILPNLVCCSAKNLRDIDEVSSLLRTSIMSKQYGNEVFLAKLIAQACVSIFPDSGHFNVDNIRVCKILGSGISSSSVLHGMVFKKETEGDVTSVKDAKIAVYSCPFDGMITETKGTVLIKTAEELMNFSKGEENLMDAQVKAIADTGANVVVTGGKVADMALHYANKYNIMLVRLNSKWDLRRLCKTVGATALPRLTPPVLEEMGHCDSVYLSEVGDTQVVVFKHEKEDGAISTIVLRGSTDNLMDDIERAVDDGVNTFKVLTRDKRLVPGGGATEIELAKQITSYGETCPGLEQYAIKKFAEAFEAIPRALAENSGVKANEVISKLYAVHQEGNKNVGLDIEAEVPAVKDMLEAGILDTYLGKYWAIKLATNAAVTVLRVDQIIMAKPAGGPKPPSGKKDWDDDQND
# UniProt P19256, whole entry, looked up: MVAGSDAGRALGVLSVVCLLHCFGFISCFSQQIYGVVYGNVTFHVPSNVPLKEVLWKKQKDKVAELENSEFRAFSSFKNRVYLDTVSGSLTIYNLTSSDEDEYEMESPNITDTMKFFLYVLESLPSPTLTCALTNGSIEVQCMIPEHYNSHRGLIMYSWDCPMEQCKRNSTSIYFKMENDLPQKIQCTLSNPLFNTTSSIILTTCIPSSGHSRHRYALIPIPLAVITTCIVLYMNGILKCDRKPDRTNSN
# UniProt Q9UJX2, whole entry, looked up: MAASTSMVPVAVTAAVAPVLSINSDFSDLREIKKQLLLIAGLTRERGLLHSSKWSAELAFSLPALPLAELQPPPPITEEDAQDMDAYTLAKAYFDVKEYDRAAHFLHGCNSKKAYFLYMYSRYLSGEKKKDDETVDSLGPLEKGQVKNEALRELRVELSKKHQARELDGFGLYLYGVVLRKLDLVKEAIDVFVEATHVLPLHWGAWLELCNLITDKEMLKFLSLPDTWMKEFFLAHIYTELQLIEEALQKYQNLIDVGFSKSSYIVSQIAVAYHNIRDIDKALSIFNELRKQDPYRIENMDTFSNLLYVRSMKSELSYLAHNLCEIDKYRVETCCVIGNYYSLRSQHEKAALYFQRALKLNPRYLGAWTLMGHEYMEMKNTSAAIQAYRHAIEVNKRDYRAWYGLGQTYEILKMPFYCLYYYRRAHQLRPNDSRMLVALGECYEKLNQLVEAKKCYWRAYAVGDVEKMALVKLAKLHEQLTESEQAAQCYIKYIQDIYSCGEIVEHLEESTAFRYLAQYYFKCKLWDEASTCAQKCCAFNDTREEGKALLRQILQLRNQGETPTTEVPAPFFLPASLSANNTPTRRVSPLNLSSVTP
# UniProt Q5M9N0: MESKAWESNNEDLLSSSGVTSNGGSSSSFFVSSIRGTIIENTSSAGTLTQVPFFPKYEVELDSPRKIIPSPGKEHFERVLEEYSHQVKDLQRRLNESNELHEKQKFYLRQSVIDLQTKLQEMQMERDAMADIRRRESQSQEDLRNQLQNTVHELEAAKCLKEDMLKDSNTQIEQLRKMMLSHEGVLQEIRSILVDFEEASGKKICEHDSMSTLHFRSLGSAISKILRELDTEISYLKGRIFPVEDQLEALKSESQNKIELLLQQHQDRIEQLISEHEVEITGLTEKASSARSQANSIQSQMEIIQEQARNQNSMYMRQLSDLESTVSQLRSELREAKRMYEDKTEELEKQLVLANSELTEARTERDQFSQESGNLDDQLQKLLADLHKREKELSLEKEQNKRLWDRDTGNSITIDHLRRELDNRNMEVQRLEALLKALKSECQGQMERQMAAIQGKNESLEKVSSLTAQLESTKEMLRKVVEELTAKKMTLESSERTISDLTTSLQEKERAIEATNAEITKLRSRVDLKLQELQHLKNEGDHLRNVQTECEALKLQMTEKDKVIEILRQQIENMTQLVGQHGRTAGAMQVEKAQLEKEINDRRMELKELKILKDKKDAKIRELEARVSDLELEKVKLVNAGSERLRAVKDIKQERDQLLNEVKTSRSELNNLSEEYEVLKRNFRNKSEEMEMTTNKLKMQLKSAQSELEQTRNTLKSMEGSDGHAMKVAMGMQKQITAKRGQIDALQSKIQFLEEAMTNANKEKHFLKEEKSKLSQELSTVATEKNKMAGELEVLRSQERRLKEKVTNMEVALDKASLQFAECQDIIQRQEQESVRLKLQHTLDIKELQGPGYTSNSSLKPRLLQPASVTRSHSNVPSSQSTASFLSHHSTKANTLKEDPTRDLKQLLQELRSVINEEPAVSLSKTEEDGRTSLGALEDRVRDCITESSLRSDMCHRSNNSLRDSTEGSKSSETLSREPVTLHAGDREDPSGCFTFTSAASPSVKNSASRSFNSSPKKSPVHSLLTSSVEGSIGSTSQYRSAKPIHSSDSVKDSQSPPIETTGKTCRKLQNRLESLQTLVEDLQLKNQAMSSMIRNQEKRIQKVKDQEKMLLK
# UniProt Q96CT7: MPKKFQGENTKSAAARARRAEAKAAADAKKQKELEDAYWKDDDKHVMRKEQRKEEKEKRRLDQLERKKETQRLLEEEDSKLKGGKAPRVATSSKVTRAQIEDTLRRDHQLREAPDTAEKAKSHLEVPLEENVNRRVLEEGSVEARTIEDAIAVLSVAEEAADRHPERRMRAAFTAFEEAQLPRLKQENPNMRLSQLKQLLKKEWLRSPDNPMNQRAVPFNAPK
# UniProt Q6NZI2: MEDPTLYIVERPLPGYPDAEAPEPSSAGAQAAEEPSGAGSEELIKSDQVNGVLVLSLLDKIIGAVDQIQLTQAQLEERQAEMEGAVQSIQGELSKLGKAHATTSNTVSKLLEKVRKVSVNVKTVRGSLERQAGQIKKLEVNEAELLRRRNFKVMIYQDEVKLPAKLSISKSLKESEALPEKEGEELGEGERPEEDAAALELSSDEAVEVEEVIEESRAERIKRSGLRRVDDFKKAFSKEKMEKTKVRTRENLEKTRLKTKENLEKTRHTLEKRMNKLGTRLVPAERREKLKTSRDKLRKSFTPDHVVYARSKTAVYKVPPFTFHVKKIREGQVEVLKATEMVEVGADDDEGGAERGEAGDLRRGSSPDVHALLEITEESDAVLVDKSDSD
# UniProt P51946: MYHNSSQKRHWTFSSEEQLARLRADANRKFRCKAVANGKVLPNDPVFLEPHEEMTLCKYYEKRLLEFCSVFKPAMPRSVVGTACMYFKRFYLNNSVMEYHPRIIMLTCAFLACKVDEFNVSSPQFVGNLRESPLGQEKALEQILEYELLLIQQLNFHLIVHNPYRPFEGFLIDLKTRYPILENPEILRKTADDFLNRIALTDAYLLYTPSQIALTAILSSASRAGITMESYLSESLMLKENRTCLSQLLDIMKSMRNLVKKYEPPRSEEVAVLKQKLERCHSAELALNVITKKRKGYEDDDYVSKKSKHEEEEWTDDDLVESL
# UniProt Q8IX12: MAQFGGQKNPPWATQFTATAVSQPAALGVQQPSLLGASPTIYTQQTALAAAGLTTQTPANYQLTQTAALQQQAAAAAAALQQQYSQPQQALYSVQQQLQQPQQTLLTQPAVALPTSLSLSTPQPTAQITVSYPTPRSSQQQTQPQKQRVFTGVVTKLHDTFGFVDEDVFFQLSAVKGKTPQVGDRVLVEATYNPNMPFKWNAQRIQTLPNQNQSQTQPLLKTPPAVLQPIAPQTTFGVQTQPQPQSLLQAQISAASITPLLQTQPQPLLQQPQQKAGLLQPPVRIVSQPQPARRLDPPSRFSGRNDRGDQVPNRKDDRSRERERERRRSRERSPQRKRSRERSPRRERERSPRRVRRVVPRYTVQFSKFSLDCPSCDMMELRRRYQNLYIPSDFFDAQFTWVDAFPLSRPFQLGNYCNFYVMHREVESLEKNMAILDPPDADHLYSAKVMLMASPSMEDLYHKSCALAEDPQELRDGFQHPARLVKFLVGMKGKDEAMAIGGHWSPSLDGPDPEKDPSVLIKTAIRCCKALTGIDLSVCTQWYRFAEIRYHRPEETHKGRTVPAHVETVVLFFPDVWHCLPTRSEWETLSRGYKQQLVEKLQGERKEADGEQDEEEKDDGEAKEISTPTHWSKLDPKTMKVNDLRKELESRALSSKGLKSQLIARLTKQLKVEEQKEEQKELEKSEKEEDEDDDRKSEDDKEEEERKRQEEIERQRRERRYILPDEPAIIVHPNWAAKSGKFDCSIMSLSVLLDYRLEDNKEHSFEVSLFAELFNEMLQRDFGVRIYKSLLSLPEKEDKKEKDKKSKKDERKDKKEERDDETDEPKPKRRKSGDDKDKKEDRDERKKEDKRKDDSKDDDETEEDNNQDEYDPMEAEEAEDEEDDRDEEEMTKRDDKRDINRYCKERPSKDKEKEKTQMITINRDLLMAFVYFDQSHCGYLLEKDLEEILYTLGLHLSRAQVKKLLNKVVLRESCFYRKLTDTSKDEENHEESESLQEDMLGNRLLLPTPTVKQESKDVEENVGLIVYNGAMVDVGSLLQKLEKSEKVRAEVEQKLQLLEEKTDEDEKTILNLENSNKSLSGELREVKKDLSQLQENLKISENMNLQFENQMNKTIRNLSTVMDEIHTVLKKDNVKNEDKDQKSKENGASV
# UniProt P55212: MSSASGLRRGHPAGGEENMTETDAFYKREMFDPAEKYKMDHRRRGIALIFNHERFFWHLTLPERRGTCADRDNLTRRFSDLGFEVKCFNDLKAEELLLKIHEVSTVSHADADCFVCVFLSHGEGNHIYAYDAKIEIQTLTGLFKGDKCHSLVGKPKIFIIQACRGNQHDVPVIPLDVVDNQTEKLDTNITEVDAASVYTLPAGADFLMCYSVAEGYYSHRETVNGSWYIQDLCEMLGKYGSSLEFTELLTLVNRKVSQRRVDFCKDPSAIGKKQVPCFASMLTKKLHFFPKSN
# UniProt P48643, whole entry, looked up: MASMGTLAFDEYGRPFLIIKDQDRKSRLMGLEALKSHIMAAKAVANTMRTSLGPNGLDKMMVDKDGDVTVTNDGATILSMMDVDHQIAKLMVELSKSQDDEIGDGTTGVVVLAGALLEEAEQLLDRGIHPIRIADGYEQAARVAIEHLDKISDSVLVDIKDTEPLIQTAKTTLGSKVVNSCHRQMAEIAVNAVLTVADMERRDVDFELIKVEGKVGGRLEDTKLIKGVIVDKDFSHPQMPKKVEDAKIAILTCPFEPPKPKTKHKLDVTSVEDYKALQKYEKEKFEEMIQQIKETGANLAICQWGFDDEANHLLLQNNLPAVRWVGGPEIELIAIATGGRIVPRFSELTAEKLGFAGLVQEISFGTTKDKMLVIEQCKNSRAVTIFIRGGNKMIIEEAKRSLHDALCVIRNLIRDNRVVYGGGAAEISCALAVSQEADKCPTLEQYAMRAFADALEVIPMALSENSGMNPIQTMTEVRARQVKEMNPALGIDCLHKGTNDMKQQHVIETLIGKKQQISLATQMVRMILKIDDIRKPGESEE
# UniProt O95067, whole entry, looked up: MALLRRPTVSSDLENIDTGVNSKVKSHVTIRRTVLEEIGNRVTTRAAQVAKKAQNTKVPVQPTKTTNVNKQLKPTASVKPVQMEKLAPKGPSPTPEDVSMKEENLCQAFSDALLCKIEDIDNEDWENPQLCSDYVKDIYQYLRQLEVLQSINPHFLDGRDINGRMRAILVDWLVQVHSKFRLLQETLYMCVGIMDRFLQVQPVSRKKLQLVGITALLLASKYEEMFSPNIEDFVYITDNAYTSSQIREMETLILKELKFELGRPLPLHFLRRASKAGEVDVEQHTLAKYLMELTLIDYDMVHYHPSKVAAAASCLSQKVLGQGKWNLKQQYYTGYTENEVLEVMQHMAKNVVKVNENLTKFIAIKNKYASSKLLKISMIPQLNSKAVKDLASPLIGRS
# This is one part of the list. Residues, ends and D or L forms follow the SMILES beside them. *: point of attachment. Cbz = O=C(OCc1ccccc1)*
# Legend:
# Experiment in all cases: log2 fold change, soluble protein after heating vs DMSO (PISA); higher = thermal stabilisation; K562 cells, 10 uM, 30 min; active = over 0.2 and 3.5 SD of the protein, either way, in both replicates (recomputed)
# IRAK-1-4 Inhibitor I = compound: C1COCCN1CCN2C3=CC=CC=C3N=C2NC(=O)C4=CC(=CC=C4)[N+](=O)[O-] [IRAK-1-4 Inhibitor I]
# How it was run: (§1)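 Soluble protein was quantified by TMTpro 16plex LC-MS/MS after channel sums were equalised. It was obtained as the supernatant after 21,000xg for 90 min from pooled aliquots of K562 cells (2×10^6 cells/mL, 10 μM compound, 30 min) heated for 3 min across 48°C-58°C and extracted in PBS with 0.5% NP-40 at 4°C. Thermal stability values are relative to control samples and come from duplicates. They are given as log2 fold changes.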
# ibrutinib = compound: C=CC(=O)N1CCC[C@@H](n2nc(-c3ccc(Oc4ccccc4)cc3)c3c(N)ncnc32)C1 [ibrutinib]
# How it was run: as §1
# [1] = compound: CC(=O)c1cnc2ccc(-c3cc(Cl)c(O)c(Cl)c3)nc2c1N[C@H]1CC[C@H](CN(C)C)CC1
# How it was run: as §1
# ralimetinib = compound: CC(C)(C)Cn1c(N)nc2ccc(-c3[nH]c(C(C)(C)C)nc3-c3ccc(F)cc3)nc21 [ralimetinib]
# How it was run: as §1
# [2] = compound: CC(C)(O)CC(=O)NCCn1ccc2ncnc(Nc3ccc(Oc4cccc(C(F)(F)F)c4)c(Cl)c3)c21
# How it was run: as §1
# [3] = compound: CC(C)C1=C2N=C(C=C(N2N=C1)NCC3=CC=CC=C3)NCCCCCCN
# How it was run: as §1
# [4] = compound: CC(C)C[C@@H](C=O)NC(=O)[C@H](CC(C)C)NC(=O)[C@H](CC(C)C)NC(=O)OCc1ccccc1
# How it was run: as §1
# pinometostat = compound: CC(C)N(C[C@H]1O[C@@H](n2cnc3c(N)ncnc32)[C@H](O)[C@@H]1O)[C@H]1C[C@@H](CCc2nc3cc(C(C)(C)C)ccc3[nH]2)C1 [pinometostat]
# How it was run: as §1
# [5] = compound: CC1=C(C(CC(=O)N1)C2=CC=C(C=C2)C(F)(F)F)C(=O)NC3=C(C=C4C(=C3)C=NN4)F
# How it was run: as §1
# [6] = compound: CC1=C(C2=C(C=C1)C(=O)C3=CC=CC=C3N2CCCN)C
# How it was run: as §1
# [7] = compound: CC1=C(C=C(C=C1)NC(=O)C2=CC(=CC=C2)C(C)(C)C#N)NC3=CC4=C(C=C3)N=CN(C4=O)C
# How it was run: as §1
# [8] = compound: CC1=C(C=C(C=C1)NC(=O)C2=CC(=CC=C2)N(C)C)NC(=O)C3=CC=C(C=C3)O
# How it was run: as §1
# [9] = compound: CC1=CC=C(C=C1)SC2=C3C=C(SC3=CN=C2)C(=O)N
# How it was run: as §1
# [10] = compound: CC1=NC(=CC=C1)C2=C(N=C(N2)C(C)(C)C)C3=CC4=NC=CN=C4C=C3
# How it was run: as §1
# Nexturastat A = compound: CCCCN(Cc1ccc(C(=O)NO)cc1)C(=O)Nc1ccccc1 [Nexturastat A]
# How it was run: as §1
# vemurafenib = compound: CCCS(=O)(=O)Nc1ccc(F)c(C(=O)c2c[nH]c3ncc(-c4ccc(Cl)cc4)cc23)c1F [vemurafenib]
# How it was run: as §1
# [11] = compound: CCCS(=O)(=O)Nc1ccc(F)c(C(=O)c2c[nH]c3ncc(Cl)cc23)c1F
# How it was run: as §1
# [12] = compound: CCCc1cc(C)[nH]c(=O)c1CNC(=O)c1cc(-c2ccnc(N3CCN(C)CC3)c2)cc2c1cnn2C(C)C
# How it was run: as §1
# givinostat = compound: CCN(CC)Cc1ccc2cc(COC(=O)Nc3ccc(C(=O)NO)cc3)ccc2c1 [givinostat]
# How it was run: as §1
# barasertib = compound: CCN(CCCOc1ccc2c(Nc3cc(CC(=O)Nc4cccc(F)c4)[nH]n3)ncnc2c1)CCOP(=O)(O)O [barasertib]
# How it was run: as §1
Target,log2 fold change (IRAK-1-4 Inhibitor I),log2 fold change (ibrutinib),log2 fold change [1],log2 fold change (ralimetinib),log2 fold change [2],log2 fold change [3],log2 fold change [4],log2 fold change (pinometostat),log2 fold change [5],log2 fold change [6],log2 fold change [7],log2 fold change [8],log2 fold change [9],log2 fold change [10],log2 fold change (Nexturastat A),log2 fold change (vemurafenib),log2 fold change [11],log2 fold change [12],log2 fold change (givinostat),log2 fold change (barasertib)
CAST isoform 6 (UniProt P20810),inactive: 0.034,inactive: 0.021,inactive: -0.009,inactive: -0.053,inactive: -0.02,inactive: 0.092,inactive: 0.045,inactive: -0.037,inactive: 0.024,inactive: -0.029,inactive: -0.045,inactive: 0.002,inactive: -0.008,inactive: 0.007,inactive: -0.071,inactive: -0.023,inactive: -0.031,inactive: 0.181,inactive: -0.021,inactive: 0.003
CD2AP (UniProt Q9Y5K6),inactive: 0.038,inactive: -0.013,inactive: -0.056,inactive: -0.042,inactive: -0.012,inactive: 0,inactive: 0.017,inactive: -0.017,inactive: -0.019,inactive: 0.025,inactive: -0.016,inactive: 0,inactive: 0.012,inactive: 0.03,inactive: -0.061,inactive: 0,inactive: 0.022,inactive: -0.01,inactive: -0.012,inactive: 0.007
CCT8 (UniProt P50990),inactive: 0.003,inactive: -0.016,inactive: -0.003,inactive: -0.019,inactive: -0.014,inactive: 0.014,inactive: -0.019,inactive: -0.023,inactive: 0.019,inactive: 0.02,inactive: -0.006,inactive: 0.006,inactive: -0.005,inactive: 0.049,inactive: -0.043,inactive: -0.009,inactive: -0.002,inactive: -0.012,inactive: 0.011,inactive: -0.018
CD58 (UniProt P19256),inactive: -0.039,inactive: -0.016,inactive: -0.039,inactive: -0.088,inactive: 0.037,inactive: 0.163,inactive: 0.052,inactive: 0.02,inactive: -0.061,inactive: 0.023,inactive: -0.015,inactive: 0,inactive: -0.014,inactive: -0.021,inactive: 0.014,inactive: -0.047,inactive: -0.023,inactive: 0.011,inactive: -0.031,inactive: -0.045
CDC23 (UniProt Q9UJX2),inactive: -0.022,inactive: 0.217,inactive: -0.028,inactive: 0,inactive: 0.016,inactive: -0.049,inactive: 0.062,inactive: 0.077,inactive: -0.018,inactive: -0.08,inactive: -0.069,inactive: -0.009,inactive: 0.014,inactive: 0.006,inactive: 0.032,inactive: -0.015,inactive: 0.004,inactive: 0.012,inactive: -0.003,inactive: 0.013
CCDC158 (UniProt Q5M9N0),inactive: -0.114,inactive: 0.041,inactive: 0.029,inactive: -0.003,inactive: 0.246,inactive: 0.075,inactive: 0.057,inactive: -0.063,inactive: -0.068,–,inactive: 0.17,inactive: -0.001,inactive: -0.064,inactive: 0.154,inactive: 0.096,inactive: -0.079,inactive: 0.007,inactive: -0.096,inactive: 0.035,inactive: -0.037
CCDC124 (UniProt Q96CT7),inactive: -0.059,inactive: -0.018,inactive: 0.048,inactive: 0.032,inactive: 0.004,inactive: 0.068,inactive: 0.056,inactive: 0.023,inactive: -0.005,inactive: 0.124,inactive: 0.01,inactive: -0.013,inactive: 0.001,inactive: -0.013,inactive: -0.033,inactive: -0.028,inactive: -0.032,inactive: -0.04,inactive: -0.022,inactive: -0.062
CAVIN1 (UniProt Q6NZI2),inactive: -0.064,inactive: -0.002,inactive: 0.011,inactive: 0.393,inactive: 0,inactive: -0.156,inactive: -0.011,inactive: 0.2,–,active: -0.437,inactive: 0.024,inactive: -0.066,inactive: -0.051,inactive: -0.027,inactive: 0.186,inactive: -0.068,inactive: -0.047,inactive: 0.073,inactive: 0.041,inactive: -0.058
CCNH (UniProt P51946),inactive: -0.01,inactive: -0.04,active: -0.24,inactive: -0.04,inactive: -0.009,inactive: 0.084,inactive: -0.053,inactive: 0.022,–,inactive: -0.01,inactive: -0.023,inactive: 0.007,inactive: -0.015,inactive: -0.056,inactive: -0.002,inactive: 0.003,inactive: 0.018,inactive: -0.029,inactive: -0.007,inactive: 0.031
CC2D1A (UniProt Q6P1N0),inactive: -0.025,inactive: -0.001,inactive: -0.015,inactive: 0.051,inactive: -0.068,inactive: 0,inactive: 0.028,inactive: -0.007,inactive: 0.02,inactive: 0.194,inactive: 0.008,inactive: -0.005,inactive: 0.009,inactive: 0.061,inactive: 0.032,inactive: 0.071,inactive: 0.032,inactive: 0.11,inactive: 0.057,inactive: 0.025
CCDC174 (UniProt Q6PII3),inactive: 0.078,inactive: 0.026,inactive: -0.009,inactive: -0.003,inactive: 0.071,inactive: 0.068,inactive: -0.042,inactive: 0.026,inactive: 0.049,inactive: -0.154,inactive: -0.026,inactive: -0.073,inactive: -0.033,inactive: -0.043,inactive: -0.095,inactive: -0.041,inactive: -0.083,inactive: 0.063,inactive: 0.013,inactive: -0.042
CCAR1 (UniProt Q8IX12),inactive: 0.002,inactive: 0.003,inactive: -0.039,inactive: -0.012,inactive: -0.103,inactive: -0.168,inactive: 0.006,inactive: -0.009,–,inactive: 0.209,inactive: 0.03,inactive: -0.046,inactive: -0.001,inactive: -0.017,inactive: 0.071,inactive: 0.007,inactive: 0.006,inactive: -0.045,inactive: 0.027,inactive: -0.04
CC2D1B isoform 2 (UniProt Q5T0F9),inactive: 0.008,inactive: -0.002,inactive: -0.063,inactive: 0.065,inactive: 0.004,inactive: -0.134,inactive: 0.002,inactive: 0.084,inactive: -0.028,inactive: 0.023,inactive: -0.007,inactive: -0.01,inactive: -0.012,inactive: -0.017,inactive: 0.089,inactive: 0.148,inactive: 0.009,inactive: 0.03,inactive: 0.032,inactive: 0.055
CASP6 (UniProt P55212),inactive: 0.035,inactive: 0.027,inactive: 0.044,inactive: 0.003,inactive: -0.019,inactive: 0.073,inactive: -0.028,inactive: -0.018,inactive: 0.063,inactive: -0.002,inactive: 0.03,inactive: 0.027,inactive: 0.013,inactive: 0.034,inactive: -0.026,inactive: -0.01,inactive: -0.005,inactive: -0.057,inactive: -0.041,inactive: 0.003
CCT5 (UniProt P48643),inactive: 0.001,inactive: -0.031,inactive: 0.004,inactive: -0.009,inactive: -0.024,inactive: 0.019,inactive: -0.039,inactive: -0.027,inactive: 0.042,inactive: 0.002,inactive: 0.015,inactive: 0.01,inactive: 0.008,inactive: 0.046,inactive: -0.115,inactive: 0.005,inactive: -0.006,inactive: -0.008,inactive: -0.018,inactive: -0.01
CCNB2 (UniProt O95067),inactive: 0.005,inactive: 0.028,inactive: -0.155,inactive: 0.035,inactive: -0.058,inactive: -0.078,inactive: 0.064,inactive: -0.019,inactive: -0.067,inactive: 0.054,inactive: 0.039,inactive: -0.007,inactive: -0.002,inactive: 0.062,inactive: 0.03,inactive: 0.047,inactive: 0.025,inactive: -0.054,inactive: 0.004,inactive: 0.01

# Quoted from the results shown (2 entries):
Target,log2 fold change (IRAK-1-4 Inhibitor I),log2 fold change (ibrutinib),log2 fold change [1],log2 fold change (ralimetinib),log2 fold change [2],log2 fold change [3],log2 fold change [4],log2 fold change (pinometostat),log2 fold change [5],log2 fold change [6],log2 fold change [7],log2 fold change [8],log2 fold change [9],log2 fold change [10],log2 fold change (Nexturastat A),log2 fold change (vemurafenib),log2 fold change [11],log2 fold change [12],log2 fold change (givinostat),log2 fold change (barasertib)
CCAR1 (UniProt Q8IX12),inactive: 0.002,inactive: 0.003,inactive: -0.039,inactive: -0.012,inactive: -0.103,inactive: -0.168,inactive: 0.006,inactive: -0.009,–,inactive: 0.209,inactive: 0.03,inactive: -0.046,inactive: -0.001,inactive: -0.017,inactive: 0.071,inactive: 0.007,inactive: 0.006,inactive: -0.045,inactive: 0.027,inactive: -0.04
CC2D1B isoform 2 (UniProt Q5T0F9),inactive: 0.008,inactive: -0.002,inactive: -0.063,inactive: 0.065,inactive: 0.004,inactive: -0.134,inactive: 0.002,inactive: 0.084,inactive: -0.028,inactive: 0.023,inactive: -0.007,inactive: -0.01,inactive: -0.012,inactive: -0.017,inactive: 0.089,inactive: 0.148,inactive: 0.009,inactive: 0.03,inactive: 0.032,inactive: 0.055
